In publication PMC6603201:
Results are given in words; binding and its absence hold for the method and conditions named. Binding calls can cover weak binding; strength is not graded here.

B1: recombinant mouse CCL22 (ligand, UniProt O88430 25-92)
chain: GPYGANVEDSICCQDYIRHPLPSRLVKEFFWTSKSCRKPGVVLITVKNRDICADPRQVWVKKLLHKLS
B2: recombinant mouse CX3CL1 (ligand, UniProt O35188 25-336)
chain: QHLGMTKCEIMCDKMTSRIPVALLIRYQLNQESCGKRAIVLETTQHRRFCADPKEKWVQDAMKHLDHQAAALTKNGGKFEKRVDNVTPGITLATRGLSPSALTKPESATLEDLALELTTISQEARGTMGTSQEPPAAVTGSSLSTSEAQDAGLTAKPQSIGSFEAADISTTVWPSPAVYQSGSSSWAEEKATESPSTTAPSPQVSTTSPSTPEENVGSEGQPPWVQGQDLSPEKSLGSEEINPVHTDNFQERGPGNTVHPSVAPISSEETPSPELVASGSQAPKIEEPIHATADPQKLSVLITPVPDTQAAT
B3: recombinant mouse CCL19 (ligand, UniProt O70460 26-108)
chain: GANDAEDCCLSVTQRPIPGNIVKAFRYLLNEDGCRVPAVVFTTLRGYQLCAPPDQPWVDRIIRRLKKSSAKNKGNSTRRSPVS
B4: recombinant mouse XCL1 (ligand, UniProt P47993 22-114)
chain: VGTEVLEESSCVNLQTQRLPVQKIKTYIIWEGAMRAVIFVTKRGLKICADPEAKWVKAAIKTVDGRASTRKNMAETVPTGAQRSTSTAITLTG
B5: recombinant mouse CXCL1 (ligand, UniProt P12850 25-96)
chain: APIANELRCQCLQTMAGIHLKNIQSLKVLPSGPHCTQTEVIATLKNGREACLDPEAPLVQKIVQKMLKGVPK
B6: recombinant mouse CXCL2 (ligand, UniProt P10889 28-100)
chain: AVVASELRCQCLKTLPRVDFKNIQSLSVTPPGPHCAQTEVIATLKGGQKVCLDPEAPLVQKIIQKILNKGKAN

molecular target: PVNZ112.0-CBP (Parapoxvirus of red deer in New Zealand (PVNZ), strain RD86); test: SPR; CBP-FLAG immobilised by amine coupling on a CM5 chip (300-400 RU, 10 mM sodium acetate pH 4.5); serial dilutions of mouse chemokine flowed in triplicate for 3 min, 10 min dissociation; 25°C; HBS-EP buffer (20 mM HEPES, 150 mM NaCl, 3.4 mM EDTA, 0.005% Polysorbate 20, pH 7.4); Biacore X100; global fit with a 1:1 binding model; both purified

Binder | binding
B1 | binds weakly
B2 | no binding
B3 | binds weakly

molecular target: PVNZ112.6-CBP (Parapoxvirus of red deer in New Zealand (PVNZ), strain RD86); test: as above

Binder | binding
B4 | binds weakly
B2 | no binding
B5 | binds weakly
B6 | binds weakly

molecular target: PVNZ112.3-CBP (Parapoxvirus of red deer in New Zealand (PVNZ), strain RD86); test: as above

Binder | binding
B1 | no binding
B4 | binds weakly
B2 | binds weakly
